Measured values published in patent US12453733B2, “Composition for prevention or treatment of intractable epilepsy comprising mTOR inhibitor” (SoVarGen Co., Ltd., priority 2015, dated 2025).
At least one structure is not confirmed: it was looked up by name or label, or the drawing left a doubt.

Experiments:
[1] = test system: AKT3 mutant-expressing HEK293T cells; experiment: Western blot of S6K phosphorylation in AKT3 mutant-expressing HEK293T cells after rapamycin treatment; assay type: cell-based, human; conditions: Example 8; rapamycin 200 nM; FIG. 17
[2] = test system: TSC1 mutant-expressing HEK293T cells; experiment: Western blot of S6K phosphorylation in TSC1 mutant-expressing HEK293T cells after drug treatment; assay type: cell-based, human
Description: (§1) Briefly, HEK293T cells (Thermo Scientific) were cultured in DMEM (Dulbecco's Modified Eagle's Medium) supplemented with 10% FBS at 37° C. and 5% CO2. The cells were transfected with empty flag-tagged vector, HA-tagged TSC1 wild-type, HA-tagged TSC2 wild-type, HA-tagged AKT3 wild-type, HA-tagged TSC1 mutant, HA-tagged TSC2 mutant and HA-tagged AKT3 mutant, respectively, using jetPRIME transfection reagent (Polyplus, France).
(§2) The cells were serum-starved with 0.1% FBS in DMEM for 24 hours after transfection and then incubated at 37° C. and 5% CO2 in PBS containing 1 mM MgCl2 and CaCl2 for 1 hour. The cells were lysed with PBS containing 1% Triton X-100 and Halt protease and phosphatase inhibitor cocktail (78440, Thermo Scientific, USA). Proteins were resolved by SDS-PAGE and transferred to PVDF membranes (Millipore, USA). The membranes were blocked with 3% BSA in TBS containing 0.1% Tween 20 (TBST). They were washed 4 times with TBST. The membranes were incubated overnight with primary antibodies including a 1/1000 dilution of anti-phospho-S6 ribosomal protein (5364, Cell Signaling Technology, USA), anti-56 ribosomal protein (2217, Cell Signaling Technology, USA), and anti-flag M2 (8164, Cell Signaling Technology, USA) in TBST at 4° C., respectively. After incubation, the membranes were washed 4 times with TBST. […]

[3] = test system: TSC2 mutant-expressing HEK293T cells; experiment: Western blot of S6K phosphorylation in TSC2 mutant-expressing HEK293T cells after drug treatment; assay type: cell-based, human
Description: as §1, §2

TSC2 mouse model = experiment: Spontaneous seizures in TSC2 mouse model (CRISPR/Cas9 local knockout) after rapamycin administration; assay type: in vivo, mice; conditions: 10 mg/kg/d intraperitoneal injection, 2 weeks; FIG. 28

SMILES: CO[C@H]1C[C@@H]2CC[C@@H](C)[C@@](O)(O2)C(=O)C(=O)N2CCCC[C@H]2C(=O)O[C@H]([C@H](C)C[C@@H]2CC[C@@H](O)[C@H](OC)C2)CC(=O)[C@H](C)/C=C(\C)[C@@H](O)[C@@H](OC)C(=O)[C@H](C)C[C@H](C)/C=C/C=C/C=C/1C [rapamycin]
- S6K phosphorylation in cells expressing mutant AKT3 [1]: reduced
- S6K phosphorylation in cells expressing mutant TSC-1 ([2]; Example 8, rapamycin 200 nM, FIG. 15): reduced
- S6K phosphorylation in TSC1 mutant-expressing cells ([2]; Example 11, FIGS. 24a and 24b): inhibited
- S6K phosphorylation in cells expressing mutant TSC-2 ([3]; Example 8, rapamycin 200 nM, FIG. 16): reduced
- S6K phosphorylation in TSC2 mutant-expressing cells ([3]; Example 11, FIGS. 25a and 25b): inhibited
- spontaneous seizures (TSC2 mouse model): almost completely freed
